{"source": "PubChem BioAssay AID1259405, NCATS, 2018", "screen": "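Knock-downs that lift recombinant protein yield in hamster ovary cells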 (primary screen)", "cell system": "Chinese hamster CHO-K1 ovary cells with stable secreted eGFP expression", "reagent": "single siRNA against mouse genes, 0.8 pmol siRNA per well (2 µl of 400 nM stock)", "time to read-out": "3 days", "read-out": "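Percent of the per-plate non-targeting control median for intracellular GFP per well by laser scanning cytometry and for cell viability by ATP luminescence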", "scale": "GFP, % of control: higher = more GFP per well, higher productivity; viability (ATP), % of control: higher = more viable cells (more ATP)", "active means": "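a knock-down is called active if GFP reaches 120% or more of non-targeting control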", "note": "The whole screen tested about 50,000 reagents; this is a random part of them. About 4,000 of them (8%) count as active. 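Mouse siRNA library applied to hamster cells; one well for each siRNA.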 A number with no mark means an inactive call. Reagents against one gene are numbered here."}
{"gene": "Slc25a40", "reagent no.": 1, "GFP, % of control": "122 (active)", "viability (ATP), % of control": 142}
{"gene": "Slc25a40", "reagent no.": 2, "GFP, % of control": 61.1, "viability (ATP), % of control": 45.5}
{"gene": "Slc25a40", "reagent no.": 3, "GFP, % of control": 50.9, "viability (ATP), % of control": 58.9}
{"gene": "Paqr5", "reagent no.": 1, "GFP, % of control": 76.7, "viability (ATP), % of control": 110}
{"gene": "Paqr5", "reagent no.": 2, "GFP, % of control": 52.7, "viability (ATP), % of control": 62.5}
{"gene": "Paqr5", "reagent no.": 3, "GFP, % of control": 96.7, "viability (ATP), % of control": 99.3}
{"gene": "Syt16", "reagent no.": 1, "GFP, % of control": 114, "viability (ATP), % of control": 80}
{"gene": "Syt16", "reagent no.": 2, "GFP, % of control": 73.5, "viability (ATP), % of control": 76.1}
{"gene": "Syt16", "reagent no.": 3, "GFP, % of control": 65.5, "viability (ATP), % of control": 65.9}
{"gene": "Plekhb1", "reagent no.": 1, "GFP, % of control": 77.4, "viability (ATP), % of control": 77.8}
{"gene": "Plekhb1", "reagent no.": 2, "GFP, % of control": 58.9, "viability (ATP), % of control": 56.6}
{"gene": "Plekhb1", "reagent no.": 3, "GFP, % of control": 59.6, "viability (ATP), % of control": 90.4}
{"gene": "Fyb1", "reagent no.": 1, "GFP, % of control": 73.7, "viability (ATP), % of control": 74.8}
{"gene": "Fyb1", "reagent no.": 2, "GFP, % of control": 96.2, "viability (ATP), % of control": 85.9}
{"gene": "Fyb1", "reagent no.": 3, "GFP, % of control": 65, "viability (ATP), % of control": 52.5}
{"gene": "Arr3", "reagent no.": 1, "GFP, % of control": 86.9, "viability (ATP), % of control": 89.3}
{"gene": "Arr3", "reagent no.": 2, "GFP, % of control": 58.4, "viability (ATP), % of control": 63.6}
{"gene": "Brinp2", "reagent no.": 1, "GFP, % of control": 67.8, "viability (ATP), % of control": 43.4}
{"gene": "Brinp2", "reagent no.": 2, "GFP, % of control": 78.8, "viability (ATP), % of control": 86.9}
{"gene": "Brinp2", "reagent no.": 3, "GFP, % of control": 89.1, "viability (ATP), % of control": 89.4}
{"gene": "Kcna7", "reagent no.": 1, "GFP, % of control": 78.4, "viability (ATP), % of control": 43.8}
{"gene": "Kcna7", "reagent no.": 2, "GFP, % of control": 13, "viability (ATP), % of control": 6.6}
{"gene": "Kcna7", "reagent no.": 3, "GFP, % of control": 84.8, "viability (ATP), % of control": 79.3}
{"gene": "Rab17", "reagent no.": 1, "GFP, % of control": 61.6, "viability (ATP), % of control": 89.4}
{"gene": "Rab17", "reagent no.": 2, "GFP, % of control": 114, "viability (ATP), % of control": 92.6}
{"gene": "Rab17", "reagent no.": 3, "GFP, % of control": 70.5, "viability (ATP), % of control": 79.2}
{"gene": "Isoc1", "reagent no.": 1, "GFP, % of control": 88, "viability (ATP), % of control": 101}
{"gene": "Isoc1", "reagent no.": 2, "GFP, % of control": 15.7, "viability (ATP), % of control": 32}
{"gene": "Isoc1", "reagent no.": 3, "GFP, % of control": 60.9, "viability (ATP), % of control": 61.7}
{"gene": "Stat3", "reagent no.": 1, "GFP, % of control": 63.6, "viability (ATP), % of control": 75.8}
{"gene": "Stat3", "reagent no.": 2, "GFP, % of control": 75.9, "viability (ATP), % of control": 82.4}
{"gene": "Stat3", "reagent no.": 3, "GFP, % of control": 47.5, "viability (ATP), % of control": 77.6}
{"gene": "Or5b101", "reagent no.": 1, "GFP, % of control": 36.1, "viability (ATP), % of control": 32.7}
{"gene": "Or5b101", "reagent no.": 2, "GFP, % of control": 67.8, "viability (ATP), % of control": 91.6}
{"gene": "Or5b101", "reagent no.": 3, "GFP, % of control": 90.3, "viability (ATP), % of control": 58.2}
{"gene": "Morc2a", "reagent no.": 1, "GFP, % of control": 77.6, "viability (ATP), % of control": 55.1}
{"gene": "Morc2a", "reagent no.": 2, "GFP, % of control": 74.4, "viability (ATP), % of control": 62.7}
{"gene": "Morc2a", "reagent no.": 3, "GFP, % of control": 83.5, "viability (ATP), % of control": 97.3}
{"gene": "Tmt1b", "reagent no.": 1, "GFP, % of control": 96.8, "viability (ATP), % of control": 105}
{"gene": "Tmt1b", "reagent no.": 2, "GFP, % of control": "140 (active)", "viability (ATP), % of control": 85}
{"gene": "Tmt1b", "reagent no.": 3, "GFP, % of control": 53.7, "viability (ATP), % of control": 80.7}

Hits (from the list above):
{"gene": "Slc25a40", "reagent no.": 1, "GFP, % of control": "122 (active)", "viability (ATP), % of control": 142}
{"gene": "Tmt1b", "reagent no.": 2, "GFP, % of control": "140 (active)", "viability (ATP), % of control": 85}
